# Data reported in PubChem BioAssay AID2551 (National Center for Advancing Translational Sciences (NCATS), 2010).
# Chains of the proteins cited; added tags and fusions are not shown. Lines headed by an entry give the natural chain unless they say otherwise; changes in a name come on top.
# UniProt P51450: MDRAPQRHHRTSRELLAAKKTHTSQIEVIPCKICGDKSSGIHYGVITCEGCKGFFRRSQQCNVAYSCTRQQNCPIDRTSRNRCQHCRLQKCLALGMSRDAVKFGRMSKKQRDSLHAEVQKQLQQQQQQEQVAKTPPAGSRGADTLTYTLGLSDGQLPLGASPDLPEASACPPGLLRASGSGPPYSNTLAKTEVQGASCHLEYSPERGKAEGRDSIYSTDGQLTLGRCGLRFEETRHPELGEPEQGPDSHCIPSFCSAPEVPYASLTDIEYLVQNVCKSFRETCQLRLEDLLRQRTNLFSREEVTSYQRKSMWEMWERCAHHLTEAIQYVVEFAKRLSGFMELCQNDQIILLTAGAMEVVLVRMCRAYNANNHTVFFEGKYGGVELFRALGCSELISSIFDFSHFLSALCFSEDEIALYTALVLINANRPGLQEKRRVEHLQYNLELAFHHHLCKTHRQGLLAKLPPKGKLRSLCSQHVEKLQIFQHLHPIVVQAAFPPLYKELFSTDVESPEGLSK
# Screen size: about 310,000 compounds; about 17,000 (5.5%) were called active. This list was built around the results that the source calls inconclusive (neither active nor inactive); the mix of calls is not that of the screen. Calls come from the whole dose curve; as a rule, active = well fitted inhibition curve with a large enough effect; inconclusive = small, poorly fitted or top-dose-only effect, or effect the other way; inactive = no such curve, though single readings can be large or run the other way. Where the call is inconclusive, the potency comes from a doubtful curve fit.
# Biological target: Nuclear receptor ROR-gamma (Mus musculus) (UniProt P51450)
# Assay: qHTS for inhibitors of ROR gamma transcriptional activity; note: nearly all actives have a fitted effect of over 60% in size
# Settings: Drosophila S2 Gal4-RORgamma UAS-luciferase reporter, 20 h; activity change, negative = inhibition: at 53.6 µM (top of the series)
# In short: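 Compounds are pin-transferred onto Drosophila Schneider cells expressing a copper-inducible Gal4–ROR gamma transactivation domain fusion. After 1 hr, copper sulfate is added to 700 uM final; luciferase is read 20 hr later.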
# % is set by controls: 0 for no effect and ±100 for the full control effect; potency is the fitted concentration of half-maximal effect.
Structure (SMILES),"activity change, negative = inhibition",Potency
Cc1ccc(C(=O)Nc2ccc3nccnc3c2)cc1,inactive: -44.6%,–
CCOc1cc(NC(=S)NCC2CCCO2)c(OCC)cc1NC(=O)c1ccccc1 (stereo unspecified),–,active: 6.31 µM
CN(CCO)C(=O)C1CCN(c2ncc(C(F)(F)F)cc2Cl)CC1,–,"inconclusive: 12.6 µM [activator, single point]"
CCn1c(Oc2ccccc2C)nc2c1c(=O)n(C)c(=O)n2C,–,"inconclusive: 11.2 µM [activator, partial curve]"
Cc1cc(C)cc(NC(=O)C(=S)NCc2ccccc2)c1,inactive: -11.4%,–
Nc1[nH]c2cc([N+](=O)[O-])ccc2c1-c1ccccn1,–,"inconclusive: 12.6 µM [inhibitor, partial curve, poor fit]"
O=C(Nc1cccc(F)c1)c1ccc(S(=O)(=O)N2CCCC2)cc1,–,"inconclusive: 7.94 µM [activator, partial curve, poor fit]"
CC(=O)Nc1ccc2c(c1)CN(c1cc(C)ccc1C)CO2,–,"inconclusive: 11.2 µM [activator, partial curve]"
COc1ccc(Oc2ncc3nc(-c4cccs4)c(=O)n(Cc4cccs4)c3n2)cc1,inactive: 18.9%,–
CCc1nn(C(C)C(=O)N2CC(C)CC(C)C2)c(=O)c2cc3occc3n12 (stereo unspecified),inactive: -41.1%,–
COc1cc(CCN2C(=O)c3cccc4cccc(c34)C2=O)c(S(=O)(=O)NCCO)cc1OC,–,"inconclusive: 2.82 µM [activator, partial curve, poor fit]"
CNc1c(C(=O)O)ccc2c1C(=O)c1ccccc1C2=O,inactive: -22.2%,–
CCN1CCN(c2ccc(S(=O)(=O)N3CCCCC3)cc2NC(=O)/C=C/c2cc(OC)ccc2OC)CC1,–,"inconclusive: 28.2 µM [inhibitor, single point]"
COc1cccc(/C=N/n2c(C)nc3ccccc3c2=O)c1O,–,active: 3.16 µM
N#Cc1ccc(CN2CCN(C(=O)CC(NC(=O)c3ccccc3)c3ccccc3)CC2)cc1 (stereo unspecified),–,"inconclusive: 17.8 µM [activator, single point]"
N=c1c2c(n(Cc3ccc(Br)cc3)c3c1CCC3)CCCC2,–,"inconclusive: 3.55 µM [activator, single point]"
O=C(CSc1nnnn1-c1ccc(Cl)cc1)NC(=O)Nc1ccc2c(c1)OCCO2,–,"inconclusive: 17.8 µM [inhibitor, single point]"
Cc1onc(-c2ccccc2Cl)c1C(=O)NC(=S)NCC(=O)c1ccccc1,–,"inconclusive: 35.5 µM [inhibitor, single point]"
O=C(N/N=C/c1ccccn1)c1cc([N+](=O)[O-])cc([N+](=O)[O-])c1,–,active: 3.55 µM
CCCCC(=O)N/N=C/c1ccc(Sc2cccc3cccnc23)o1,–,active: 5.62 µM
Cc1ccc(C(=O)Nc2nnc(-c3ccco3)o2)cc1,–,"inconclusive: 5.62 µM [inhibitor, single point]"
O=C(Nc1nc(-c2ccccn2)cs1)c1ccc(S(=O)(=O)N2CCCCC2)cc1,–,active: 1.58 µM
CN1CCN(NC(=S)Nc2ccc(Oc3ccccc3)cc2)CC1,–,"inconclusive: 22.4 µM [inhibitor, partial curve, poor fit]"
COc1ccccc1Nc1ccc(NS(=O)(=O)c2ccc(C(C)=O)cc2)cc1,–,"inconclusive: 31.6 µM [activator, single point]"

Structure (SMILES),"activity change, negative = inhibition",Potency
CCCn1c(=O)c(C(=O)NC(C)c2ccccc2)c(O)c2ccccc21 (stereo unspecified),–,"inconclusive: 20 µM [inhibitor, single point]"
Cc1ccc(NC(=O)CN(C)C(=O)COc2ccc(C(=O)c3ccc(F)cc3)cc2)cc1,–,"inconclusive: 17.8 µM [activator, single point]"
O=C(c1ccccc1)c1c[nH]c2cc3c(cc2c1=O)OCCO3,–,"inconclusive: 35.5 µM [activator, single point]"
CCc1ccc(OCc2ccc(C(=O)NCc3ccccn3)o2)cc1,–,"inconclusive: 17.8 µM [activator, partial curve, poor fit]"
COc1ccc2nc(NC(=O)CSc3ccccc3)sc2c1,–,active: 1.58 µM
COCCNC(=O)c1cc(-c2cccnc2)nc2ccc(Br)cc12,–,"inconclusive: 3.98 µM [inhibitor, partial curve]"
Cc1cc(C)nc(NS(=O)(=O)c2ccc(N3Cc4ccccc4C3=O)cc2)n1,inactive: 7.07%,–
CCOc1ccc(/C=N\NC(=O)c2c(C)nc3cc(C)ccn23)cc1,–,"inconclusive: 25.1 µM [inhibitor, single point]"
CC(C)CCOc1ccc(C2(C)NC(=O)N(CN3CCOCC3)C2=O)cc1 (stereo unspecified),–,"inconclusive: 12.6 µM [activator, single point]"
CCCc1[nH]nc2c1C(c1ccoc1)C(C#N)=C(N)O2 (stereo unspecified),–,"inconclusive: 14.1 µM [activator, single point]"
Cc1cc(C)c(S(=O)(=O)Nc2cccc3nsnc23)c(C)c1,inactive: 5.41%,–
Cn1c(=O)c2c(nc(SCC(=O)N3CCc4ccccc4C3)n2C)n(C)c1=O,inactive: -0.0819%,–
CCOc1ccc(NS(=O)(=O)c2ccc(C(=O)NCCCN3CCCC3=O)cc2)cc1,–,"inconclusive: 11.2 µM [activator, partial curve]"
COc1cccc(CN2CC34CC(c5ccc(C(C)=O)cc5)C(CC3S2(=O)=O)O4)c1 (stereo unspecified),inactive: 8.42%,–
O=C(Nc1nc(-c2ccccn2)cs1)c1ncc(Cl)c(Cl)c1Cl,–,active: 6.31 µM
Cc1sc(-n2c(C)cc(/C=N/n3cnnc3)c2C)c(C#N)c1C,–,"inconclusive: 35.5 µM [inhibitor, single point]"
CSc1c(SCc2ccccc2)cnn(-c2ccccc2)c1=O,–,"inconclusive: 20 µM [inhibitor, single point]"
COc1ccccc1N1CCN(C(=O)CSc2nc3ccccc3[nH]2)CC1,–,"inconclusive: 20 µM [activator, single point]"
O=C(NC1=NCCS1)c1cccc(NC(=O)c2ccco2)c1,–,"inconclusive: 12.6 µM [activator, single point]"
CCOC(=O)Cc1csc(NC(=O)/C=C/c2ccc(OC)cc2)n1,–,"inconclusive: 17.8 µM [inhibitor, single point]"
CCC(=O)Nc1ccc(C(=O)CSc2nnc(-c3ccccc3F)n2C2CC2)cc1,–,"inconclusive: 0.794 µM [activator, full curve, poor fit]"
CCOC(=O)c1ccc2c(c1)nc(SC/C(O)=C(\C#N)c1nc3ccccc3[nH]1)n2CC,–,active: 5.01 µM
O=C(Nc1nnc(S(=O)(=O)N2CCOCC2)s1)c1ccc(Cl)cc1,–,"inconclusive: 28.2 µM [activator, partial curve, poor fit]"
Cc1ccc(NC(=S)NCc2ccc3c(c2)cc(C)n3C)c(C)c1,–,active: 1 µM

# Part of the list above, bar-delimited.
Structure (SMILES) | activity change, negative = inhibition | Potency
Nc1[nH]c2cc([N+](=O)[O-])ccc2c1-c1ccccn1 | – | inconclusive: 12.6 µM [inhibitor, partial curve, poor fit]
O=C(Nc1cccc(F)c1)c1ccc(S(=O)(=O)N2CCCC2)cc1 | – | inconclusive: 7.94 µM [activator, partial curve, poor fit]
CCc1nn(C(C)C(=O)N2CC(C)CC(C)C2)c(=O)c2cc3occc3n12 (stereo unspecified) | inactive: -41.1% | –
COc1cc(CCN2C(=O)c3cccc4cccc(c34)C2=O)c(S(=O)(=O)NCCO)cc1OC | – | inconclusive: 2.82 µM [activator, partial curve, poor fit]
N#Cc1ccc(CN2CCN(C(=O)CC(NC(=O)c3ccccc3)c3ccccc3)CC2)cc1 (stereo unspecified) | – | inconclusive: 17.8 µM [activator, single point]
CCCCC(=O)N/N=C/c1ccc(Sc2cccc3cccnc23)o1 | – | active: 5.62 µM
Cc1ccc(C(=O)Nc2nnc(-c3ccco3)o2)cc1 | – | inconclusive: 5.62 µM [inhibitor, single point]
O=C(Nc1nc(-c2ccccn2)cs1)c1ccc(S(=O)(=O)N2CCCCC2)cc1 | – | active: 1.58 µM
Cc1ccc(NC(=O)CN(C)C(=O)COc2ccc(C(=O)c3ccc(F)cc3)cc2)cc1 | – | inconclusive: 17.8 µM [activator, single point]
CCc1ccc(OCc2ccc(C(=O)NCc3ccccn3)o2)cc1 | – | inconclusive: 17.8 µM [activator, partial curve, poor fit]
COCCNC(=O)c1cc(-c2cccnc2)nc2ccc(Br)cc12 | – | inconclusive: 3.98 µM [inhibitor, partial curve]
CC(C)CCOc1ccc(C2(C)NC(=O)N(CN3CCOCC3)C2=O)cc1 (stereo unspecified) | – | inconclusive: 12.6 µM [activator, single point]
Cc1cc(C)c(S(=O)(=O)Nc2cccc3nsnc23)c(C)c1 | inactive: 5.41% | –
CCOc1ccc(NS(=O)(=O)c2ccc(C(=O)NCCCN3CCCC3=O)cc2)cc1 | – | inconclusive: 11.2 µM [activator, partial curve]
COc1cccc(CN2CC34CC(c5ccc(C(C)=O)cc5)C(CC3S2(=O)=O)O4)c1 (stereo unspecified) | inactive: 8.42% | –
Cc1sc(-n2c(C)cc(/C=N/n3cnnc3)c2C)c(C#N)c1C | – | inconclusive: 35.5 µM [inhibitor, single point]
COc1ccccc1N1CCN(C(=O)CSc2nc3ccccc3[nH]2)CC1 | – | inconclusive: 20 µM [activator, single point]
O=C(NC1=NCCS1)c1cccc(NC(=O)c2ccco2)c1 | – | inconclusive: 12.6 µM [activator, single point]
CCOC(=O)c1ccc2c(c1)nc(SC/C(O)=C(\C#N)c1nc3ccccc3[nH]1)n2CC | – | active: 5.01 µM

# Next structures

Structure (SMILES),"activity change, negative = inhibition",Potency
COc1cccc2sc3ccc(C#CC4(O)CCCCC4)cc3c(=O)c12,–,"inconclusive: 5.62 µM [activator, partial curve]"
COCCNC(=S)Nc1ccc2nc(N3CCCC3)cc(C)c2c1,–,"inconclusive: 3.98 µM [inhibitor, single point]"
Fc1ccc(Cn2cc(C(=S)N3CCOCC3)c3ccccc32)cc1,–,active: 8.91 µM
CCCCOc1cccc(C(=O)NC(=S)Nc2cccc(NC(=O)c3ccccc3Cl)c2)c1,–,"inconclusive: 4.47 µM [inhibitor, single point]"
O=C(CSc1nnc(-c2ccccc2)n1-c1ccc(Cl)cc1)N/N=C/c1ccco1,–,"inconclusive: 35.5 µM [activator, single point]"
O=S(=O)(NCc1ccccc1)c1ccc(Br)c2nsnc12,inactive: 16.8%,–
COc1ccc(C)cc1NC(=O)CNC(=O)[C@@H]1Cc2ccccc2CN1,inactive: -10.3%,–
N#CC(C#N)=C1C=C2C=C(N3CCCCCC3)CCC2CC1 (stereo unspecified),–,"inconclusive: 8.91 µM [activator, partial curve]"
CC1CC(Nc2ccccc2)c2ccccc2N1C(=O)c1cccnc1 (stereo unspecified),inactive: -29%,–
COC(=O)c1ccc(CSc2nc3c(cnn3-c3ccc(C)c(C)c3)c(=O)[nH]2)o1,–,"inconclusive: 11.2 µM [activator, partial curve, poor fit]"
COc1cc(C(=S)N2CCOCC2)cc(OC)c1OC(=O)c1ccc(F)cc1,–,"inconclusive: 11.2 µM [activator, partial curve]"
CC(Oc1ccc(Br)cc1)C(=O)Nc1ccncc1 (stereo unspecified),–,"inconclusive: 31.6 µM [inhibitor, single point]"
CN1/C(=C/c2cccc[n+]2CCO)Sc2ccccc21,inactive: -12.2%,–
Cc1cccc(C)c1NC(=O)C1CCCN1S(=O)(=O)c1ccccc1 (stereo unspecified),inactive: -3.97%,–
CCCc1nc2ccccc2n1CCc1ccccc1,–,active: 7.08 µM
COCCNC(=O)CN1CCC(n2c(C)nc3cc(C(F)(F)F)ccc32)CC1,–,"inconclusive: 2.24 µM [inhibitor, partial curve]"
CC(C)C[C@H](NC(=O)c1nc[nH]c1C(=O)NC(c1ccccc1)c1ccccc1)C(=O)OCc1ccccc1,–,active: 2.51 µM
O=S1(=O)CCN(C(CCO)c2cccc(C(F)(F)F)c2)CC1 (stereo unspecified),inactive: -10.7%,–
CCSc1ccccc1C(=O)N1CCN(c2ccc([N+](=O)[O-])cc2)CC1,–,"inconclusive: 1 µM [activator, partial curve]"
O=C(c1ccc([N+](=O)[O-])cc1)N1CCN(C2=NS(=O)(=O)c3ccccc32)CC1,inactive: -22.4%,–
Cc1cccc(Nc2nc(-c3ccccn3)cs2)n1,–,active: 1.58 µM
COc1cc(C(=O)Nc2cc3c(cc2N2CCCCC2)n(C)c(=O)n3C)cc(OC)c1OC,–,"inconclusive: 14.1 µM [inhibitor, single point]"
Cc1nc2ccc(NS(=O)(=O)c3c(C)c(C)cc(C)c3C)cc2s1,–,"inconclusive: 3.98 µM [activator, partial curve, poor fit]"
